Data reported in patent US20180312608A1.
Results are given in words; binding and its absence hold for the method and conditions named. Some binding calls cover weakened binding; strength is not graded here.

Sequences of proteins named here, by UniProt entry; tags and fusion partners are left off. A change or cut given only in a name is not applied to a line headed by its entry. A line that says so, or that is headed by a name, gives the form on record, which may keep a tag or linker.
solubilized PHF (paired helical filament Tau) from human AD brain (P10636, form named): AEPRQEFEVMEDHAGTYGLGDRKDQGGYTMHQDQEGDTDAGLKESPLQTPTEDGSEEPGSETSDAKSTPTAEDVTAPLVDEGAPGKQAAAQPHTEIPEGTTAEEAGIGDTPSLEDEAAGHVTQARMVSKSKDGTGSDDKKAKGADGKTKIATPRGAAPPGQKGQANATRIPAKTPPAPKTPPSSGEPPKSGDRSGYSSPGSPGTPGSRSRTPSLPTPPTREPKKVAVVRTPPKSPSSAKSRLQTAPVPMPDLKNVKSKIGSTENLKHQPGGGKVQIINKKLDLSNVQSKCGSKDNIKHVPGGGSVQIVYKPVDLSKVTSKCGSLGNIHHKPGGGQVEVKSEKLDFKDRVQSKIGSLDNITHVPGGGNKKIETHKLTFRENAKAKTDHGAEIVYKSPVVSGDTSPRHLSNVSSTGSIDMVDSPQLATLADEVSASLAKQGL

What was measured:
[1] = target: solubilized PHF (paired helical filament Tau) from human AD brain (human) (UniProt P10636); assay: dot blot
[2] = target: solubilized PHF (paired helical filament Tau) from human AD brain (human) (UniProt P10636); assay: dot blot and ELISA
[3] = target: sarkosyl soluble tau fraction from human AD brain (human) (UniProt P10636); assay: dot blot of AD brain tau fractions
[4] = target: solubilized PHF (paired helical filament Tau) from human AD brain (human) (UniProt P10636); assay: dot blot of AD brain tau fractions
[5] = target: solubilized PHF (paired helical filament Tau) from human AD brain (human) (UniProt P10636); assay: confocal imaging, co-incubation in neuron cultures
[6] = target: sarkosyl soluble tau fraction from human AD brain (human) (UniProt P10636); assay: dot blot of AD brain tau fractions (FIG. 16, Panel A)
[7] = target: solubilized PHF (paired helical filament Tau) from human AD brain (human) (UniProt P10636); assay: as above
[8] = target: solubilized PHF (paired helical filament Tau) from human AD brain (human) (UniProt P10636); assay: confocal imaging of fluorescently labeled PHF and antibody (FIG. 10)
[9] = target: sarkosyl soluble tau fraction from human AD brain (human) (UniProt P10636); assay: ELISA, plate coated with sarkosyl soluble tau (1 µg/well), antibody dilutions
[10] = target: solubilized PHF (paired helical filament Tau) from human AD brain (human) (UniProt P10636); assay: confocal imaging of fluorescently labeled PHF and antibody in primary neuron cultures
[11] = target: sarkosyl insoluble tau fraction from human AD brain (human) (UniProt P10636); assay: dot blot of tau fractions from AD brain on nitrocellulose, antibody as primary [Panel A]
[12] = target: solubilized PHF (paired helical filament Tau) from human AD brain (human) (UniProt P10636); assay: as above
[13] = target: sarkosyl insoluble tau fraction from human AD brain (human) (UniProt P10636); assay: ELISA, plate coated with sarkosyl insoluble tau from AD brain (1 µg/well), serial antibody dilutions [Panel E]
[14] = target: solubilized PHF (paired helical filament Tau) from human AD brain (human) (UniProt P10636); assay: confocal imaging of fluorescently labeled PHF (10 µg/mL) and labeled Antibody 4E6G7 (1 µg/mL) on primary neurons, co-localization

- binding [1]: binds
- binding [2]: binds
- binding [3]: binds
- binding [4]: binds
- binding [5]: binds
- binding [6]: binds
- binding [7]: binds
- binding [8]: binds
- binding [9]: binds
- binding [10]: binds
- binding [11]: binds
- binding [12]: binds
- binding [13]: binds
- binding [14]: binds
B1: Antibody 4E6G7 (antibody, V domains shown)
VH: VQLQQSGAELVQPGASVKLSCTASGFNIKDTSMHWVRQRPEQGLEWIGRIAPANGNTKYDPKFQGKATITTDTSSNTAYLQLSSLTSEDTAVYYCSGSGNYDWGQGTTLTVS
VL: DIQMNQSPSSLSASLGDTITISCHASQNINVWLSWYQQKPGNIPKLLIFEASTLYTGVPSRFSGSGSGTGFTLTISSLQPEDIATYYCQQGQSYPWTFGGGTKLEIKR
